Values from PubChem BioAssay AID1053208 (Peter MacCallum Cancer Centre, 2014)
In all, the deposit lists about 17,000 reagents; below is a random part of them. In the full data, 788 (4.7%) got an active call. 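Calls rest on z-score classes alone; an extra cut-off of viability at most 70% of control was not applied to them.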 Not all columns of the deposit are shown.

Aim: 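Genes whose silencing cuts survival of bone tumour cells only with doxorubicin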 (primary screen)
Cell system: mouse osteosarcoma cells, early-passage culture from an engineered mouse model of fibroblastic bone tumour
Reagents: siRNA pool against mouse genes, 40 nM
Timing: about 120 h (48 h before drug, then 72 h with drug)
Treatment: doxorubicin 100 nM for 72 h, roughly 30-40% inhibitory dose
Read-out: 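Luminescent ATP signal taken as viability with or without 100 nM doxorubicin for 72 h; mean of two wells set against non-targeting siRNA and turned into robust z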
Direction: viability z-score with doxorubicin: higher = more viable cells under doxorubicin; viability z-score without drug: higher = more viable cells with knock-down alone
Rule for the call: 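Called active if knock-down leaves viability unchanged without drug (z within -2 to 2) but lowers it with doxorubicin (z at or under -2)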

Knock-down of Apcs resulted in: combined z-score class no change with or without drug; viability z-score with doxorubicin -0.11; viability z-score without drug -1.69; inactive.
For Cd5, the values are combined z-score class no change with or without drug; viability z-score with doxorubicin -1.35; viability z-score without drug -0.17; inactive.
Rnaset2b showed combined z-score class no change with or without drug; viability z-score with doxorubicin -1.8; viability z-score without drug -0.51; inactive.
With knock-down of Zfp235, the screen gave combined z-score class no change with or without drug; viability z-score with doxorubicin 0.67; viability z-score without drug 0.84; inactive.
Against Abi2 the deposit lists combined z-score class no change with or without drug; viability z-score with doxorubicin 0.79; viability z-score without drug 1.18; inactive.
With knock-down of Mmp11 the results were combined z-score class no change with or without drug; viability z-score with doxorubicin -0.45; viability z-score without drug -0.17; inactive.
Pik3c2a scored combined z-score class no change with or without drug; viability z-score with doxorubicin 1.12; viability z-score without drug 1.52; inactive.

2 neighbouring records from above:
Mmp11 | combined z-score class: no change with or without drug; viability z-score with doxorubicin: -0.45; viability z-score without drug: -0.17; Call: inactive
Pik3c2a | combined z-score class: no change with or without drug; viability z-score with doxorubicin: 1.12; viability z-score without drug: 1.52; Call: inactive

Continued:
Dmrta2 showed combined z-score class no change with or without drug; viability z-score with doxorubicin 0; viability z-score without drug 1.18; inactive.
Klra23 gave combined z-score class no change with or without drug; viability z-score with doxorubicin 0; viability z-score without drug -0.51; inactive.
Depletion of Usp17lb gave: combined z-score class no change with or without drug; viability z-score with doxorubicin -0.79; viability z-score without drug 1.52; inactive.
Against Dzank1, the entry reads combined z-score class no change with or without drug; viability z-score with doxorubicin 0.22; viability z-score without drug 1.01; inactive.
Or2w1 gave combined z-score class no change with or without drug; viability z-score with doxorubicin 1.35; viability z-score without drug 1.52; inactive.
